Measured values from US20250043022A1.
Numbering of substitutions follows the chain as printed. These are yes or no findings as the source states them, for the method shown. Some results given as binding are weak or reduced against the parent protein; the word gives no strength.

The chains behind the UniProt entries cited, without tags or fusion partners. Where a name states a change or a piece, a line headed by the entry shows the natural chain unless it says otherwise. Residues count along the entry.
UniProt Q04609: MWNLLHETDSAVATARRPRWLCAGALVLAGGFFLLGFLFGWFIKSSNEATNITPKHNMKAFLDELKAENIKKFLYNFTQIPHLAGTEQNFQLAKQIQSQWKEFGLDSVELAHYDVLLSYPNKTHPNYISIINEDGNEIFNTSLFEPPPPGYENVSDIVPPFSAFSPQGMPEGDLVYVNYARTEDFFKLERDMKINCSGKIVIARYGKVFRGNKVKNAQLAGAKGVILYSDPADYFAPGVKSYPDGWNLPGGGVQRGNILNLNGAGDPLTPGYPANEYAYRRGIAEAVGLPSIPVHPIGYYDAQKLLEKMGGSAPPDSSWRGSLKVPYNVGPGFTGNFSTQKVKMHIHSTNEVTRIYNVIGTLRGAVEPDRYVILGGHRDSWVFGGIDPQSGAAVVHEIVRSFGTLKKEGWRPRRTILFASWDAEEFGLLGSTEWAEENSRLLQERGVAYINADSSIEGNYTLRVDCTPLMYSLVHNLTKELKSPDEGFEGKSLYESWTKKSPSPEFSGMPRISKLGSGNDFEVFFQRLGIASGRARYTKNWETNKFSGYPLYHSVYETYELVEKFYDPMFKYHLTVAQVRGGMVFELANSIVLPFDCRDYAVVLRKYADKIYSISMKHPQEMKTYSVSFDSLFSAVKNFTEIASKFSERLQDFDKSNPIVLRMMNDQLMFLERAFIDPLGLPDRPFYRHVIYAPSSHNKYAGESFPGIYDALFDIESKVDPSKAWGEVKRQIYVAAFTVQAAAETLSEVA
human PSMA antigen (R&D SYSTEM, 4234-ZN-010): residues 44-750 of Q04609

B1: Chi13 (antibody, human IgG1, kappa, V domains shown)
VH: QVQLKESGPGLVAPSQSLSITCTVSGFSLTNYAISWVRQPPGKGLEWLGVIWTGGGTHYNSALKSRLSISKDNSKSQVFLKMNSLQTDDTARYYCARKGNYYGSSLYYYAMNYWGQGTSVTVSS
VL: DIQMTQTTSSLSASLGDRVTISCRASQDISNYLNWYQQKPDGTVKLLIYYTSRLQSGVPSRFSGSGSGTDYSLSISNLEQEDIATYFCQQGDTLPYTFGGGTKLEIRT
B2: hu2H1L1 (antibody, human IgG1, kappa, V domains shown)
VH: EVQLVESGGGLVQPGGSLRLSCAASGFTFSDYYMAWVRQAPGKGLEWVANINFDGSSTYYLDSLKSRFTISRDNAKNSLYLQMNSLRAEDTAVYYCARDLDGYYGYFDVWGQGTTVTVSS
VL: EIVLTQSPDFQSVTPKEKVTITCSASSSVSHMYWYQQKPDQSPKLLIYRTSNLASGVPSRFSGSGSGTDFTLTINSLEAEDAATYYCQQYHSYPLMFGQGTKLEIKR
B3: hu46H2L2 (antibody, human IgG1, kappa, V domains shown)
VH: EVQLVESGGGLVKPGGSLRLSCAASGFTFSNYGMSWVRQAPGKGLEWVSTIGSGGGYTYYSDSVKGRFTISRDNAKNSLYLQMNSLRAEDTAVYYCVRHPQIGYWGQGTLVTVSS
VL: DIQMTQSPSSLSASVGDRVTITCKASQSVGTAVAWYQQKPGKAPKLLIYSASSRYTGVPSRFSGSGSGTDFTLTISSLQPEDFADYFCHQYSSYPLTFGGGTKVEIKR
B4: chi73 (antibody, human IgG1, kappa, V domains shown)
VH: QVQLQQSGPELVKPGASVKISCKASGYAFSTSWMNWVKERPGKGLEWIGRIYPGDGDTKYNGKFQGKATLTADKSSSTAYMKLSSLTSEDSAVYFCVRSIYYLYYFDYWGQGTTLTVSS
VL: DIQMTQPTSSLSASLGDRVTISCSTSQDIYNNLSWFQQKPDGTVRLLIYYTSSLHSGVPSRFSGSGSGTDYSLTISNLEPEDIATYYCQQYNNLPFTFGGGTNLEIRR
B5: hu15H4L2 (antibody, human IgG1, kappa, V domains shown)
VH: EFQLVQSGAEVKKPGASVKVSCKASGYSFTDHNMNWVRQAPGQRLEWMGLINPNYGTADYNQKFKGRVTLTVDQSATTAYMELSSLRSEDTAVYYCARGSSLFAYWGQGTLVTVSS
VL: DIQMTQSPSSLSASVGDRVTITCKASQGVDTAVAWYQQKPGKSPKLLIYWASTRHTGVPDRFSGSGSGTDFTLTISSLQPEDVATYYCQQYSRYPLTFGQGTKLEIKR
B6: hu43H3L2 (antibody, human IgG1, kappa, V domains shown)
VH: EVQFVESGGGLVQPGGSLRLSCAASGFTFSNYWMNWLRQAPGKGLEWVAQVRLKSDNYATHYAESVKGRFTISREDAKNSAYLQMNSLRAEDTAVYYCSENYYGPAGPFDFWGQGTTVTVSS
VL: B5 VL with G28N, D30H, A32S, W50S, T53N, H55Y, T56S, D60S, R93S
B7: hu31H1L1 (antibody, human IgG1, kappa, V domains shown)
VH: EVQLVESGGGLVQPGGSLRLSCAASGFTFSDYYMAWVRQAPGKGLEWVASINYDGSSTYYLDSLKSRFTISRDNAKNSLYLQMNSLRAEDTAVYYCAGSDGYWAWFAYWGQGTLVTVSS
VL: DIQMTQSPSSLSASVGDRVTITCRASGNIHNYLAWYQQKPGKAPKLLIYNAETLADGVPSRFSGSGSGTDFTLTISSLQPEDFATYYCQHFWSTPPTFGGGTKVEIKR
B8: hu41H2L2 (antibody, human IgG1, kappa, V domains shown)
VH: EVQLVQSGAEVKKPGASVKVSCKASGYTFTSYGISWVRQAPGQGLEWMGEIFPRRGNTYYNEKFRGRVTLTADKSTSTAYMELRSLRSDDTAVYYCARVFDGYYNYAMDYWGQGTTVTVSS
VL: DIQMTQSPSSLSASVGDRVTITCRASQDIGSSLNWLQQKPGKAIKRLIYATSSLDSGVPSRFSGSRSGTDYTLTISSLQPEDFATYYCLQYASSPYTFGGGTKVEIKR
B9: murine antibody 41 (antibody, V domains shown)
VH: QVQLQQSGAELARPGASVKLSCKASGYTFTSYGISWVKQRTGQGLEWIGEIFPRRGNTYYNEKFRGKATLTADKSSSAAYMELRSLTSEDSAVYFCARVFDGYYNYAMDYWGQGTSVTVSS
VL: DIQMTQSPSSLSASLGERVSLTCRASQDIGSSLNWLQQQPDGTIKRLIYATSSLDSGVPTRFSGSRSGSDYSLTISSLESEDFVDYYCLQYASSPYTFGGGTKLEIK
B10: murine antibody 15 (antibody, V domains shown)
VH: EFQLQQSGPELVKPGASVKISCKASGYSFTDHNMNWVKQSNGKSLEWIGLINPNYGTADYNQKFKGKATLTVDQSSTTAFMQFTSLTSEDSAVYYCARGSSLFAYWGQGTLVTVSA
VL: DIVMTQSHKFMSTSVGDRVNITCKASQGVDTAVAWYQQKPGQSPKLLIYWASTRHTGVPDRFTGSGSGTDFTLTISNVQSEDLADYFCQQYSRYPLTFGAGTKLELK
B11: murine antibody 19 (antibody, V domains shown)
VH: EVKLVESEGGLVQPGSSMKLSCTASGFTFSDYYMAWVRQVPERGLEWVANINYDGSSTYYLDSLKSRFIISRDNAKNILYLQMSSLKSEDTATYYCARGGDYWDAMDYWGQGTSVTVSS
VL: DIQMTQTTSSLSASLGDRVTISCRASQDISKYLNWYQQKPDGTVKLLIYYTSSLHSGVPSRFSGSGSGTDYSLTISNLEQEDIATYFCQQGNRLPRTFGGGTKLEIK
B12: murine antibody 31 (antibody, V domains shown)
VH: EVKLVESEGGLVQPGSSKKLSCTASGFTFSDYYMAWVRQVPEKGLEWVASINYDGSSTYYLDSLKSRFIISRDNAKNNLYLQMNSLKSEDTATYYCAGSDGYWAWFAYWGQGTLVTVSA
VL: DIQMTQSPASLSASVGEAVTITCRASGNIHNYLAWYQQKQGKSPQLLVYNAETLADGVPSRFSGSGSGTQFSLKINSLRPEDFGSYYCQHFWSTPPTFGGGTKLEIK
B13: murine antibody 50 (antibody, V domains shown)
VH: QVQLQQSGAELARPGASVKLSCKASGFTFTNYGISWVKQRTGQGLEWIGEIYPRSGNTYYNTNFKGEATLTADKSSSTAFMELRSLTSEDSAVYFCARNPFTTVVEGFAFWGQGTLVTVSA
VL: DVFMTQSPLSLPVSLGDQASISCRSSQSILHSNGNTYLEWYLQKPGQSPKLLIYRVSNRFSGVPDRFSGSGSGTDFTLKISRVEAEDLGVYYCFQGLHVPPTFGAGTKLELK
B14: murine antibody 73 (antibody, V domains shown)
VH: B4 VH
VL: DIQMTQPTSSLSASLGDRVTISCSTSQDIYNNLSWFQQKPDGTVRLLIYYTSSLHSGVPSRFSGSGSGTDYSLTISNLEPEDIATYYCQQYNNLPFTFGGGTNLEIR
B15: murine antibody 13 (antibody, V domains shown)
VH: B1 VH
VL: DIQMTQTTSSLSASLGDRVTISCRASQDISNYLNWYQQKPDGTVKLLIYYTSRLQSGVPSRFSGSGSGTDYSLSISNLEQEDIATYFCQQGDTLPYTFGGGTKLEI
B16: murine antibody 43 (antibody, V domains shown)
VH: EVKFEESGGGLVQPGGSMKLSCVASGFTFSNYWMNWLRQSPEKGLEWVAQVRLKSDNYATHYAESVKGRFTISRDDSKSSAYLQMNNLRAEDTGIYYCSENYYGPAGPFDFWGQGTTLTVSS
VL: DIVMTQSQKFMSTTVGDRVSITCKASQNVHTSVAWYQQKPGQSPKLLIYSASNRYSGVPDRFTGSGSGTDFTLTINNMQSEDLADYFCQQYSSYPLTFGVGTKLELK
B17: murine antibody 46 (antibody, V domains shown)
VH: EVQLVESGGDLVKPGGSLKLSCAASGFTFSNYGMSWVRQTPDKRIKWVATIGSGGGYTYYSDSVKGRFTISRDNAKNTLYLQMSSLKSEDTAIYYCVRHPQIGYWGQGTLVTVSA
VL: B16 VL with S20T, N28S, H30G, S32A, N53S, S56T, N76T, Q89H, V100G, L106I
B18: murine antibody 2 (antibody, V domains shown)
VH: EVKLVESEGGLVQPGSSMKLSCTASGFTFSDYYMAWVRQVPEKGLEWVANINFDGSSTYYLDSLKSRFIISRDNAKNILYLQMSSLKSEDTATYYCARDLDGYYGYFDVWGTGTTVTVSS
VL: QIVLTQSPAIMSASPGEKVTISCSASSSVSHMYWYQQKPGSSPKPWIYRTSNLASGVPARFSGSGSGTSYSLTISSMEAEDAATYYCQQYHSYPLMFGAGTKLELK
B19: murine antibody 27 (antibody, V domains shown)
VH: B18 VH with F53Y
VL: B18 VL with H31Y, M96T
B20: murine antibody 71 (antibody, V domains shown)
VH: QVQLVETGGGLVRPGNSLKLSCVTSGFTFSNYRMHWLRQPPGKRLEWIAVITVKSDNYGSSYAESVKGRFAISRDDSKSSVYLEMNRLREEDTATYFCSRELGQVLVFWGQGTLVTVSA
VL: DVVVTQTPLSLPVSLGDQASISCRSSQSLVHSYGNTYLHWYLQKPGQSPKLLIYKVSNRFSGVPDRFSGSGSGTDFTLKISRVEAEDLGVYFCSQTTHVPWTFGGGTKLEIK

Molecular target: human PSMA on cells (Cho-hPSMA, CHO-K1 cells overexpressing full-length human PSMA) (human) (UniProt Q04609)
Assay: Cho-hPSMA cells

Row | binding | Binder
1 | binds | B1

Molecular target: human PSMA antigen (R&D SYSTEM, 4234-ZN-010) (human) (UniProt Q04609)
Assay: ELISA

Row | binding | Binder
2 | binds | B2
3 | binds | B3
4 | binds | B4
5 | binds | B1
6 | binds | B5
7 | binds | B6
8 | binds | B7
9 | binds | B8

Molecular target: cynomolgus monkey PSMA on the cell surface (cynomolgus monkey)
Assay: hybridoma screening on cells

Row | binding | Binder
10 | binds | B9
11 | binds | B10
12 | binds | B11
13 | binds | B12
14 | binds | B13
15 | binds | B14
16 | binds | B15
17 | binds | B16
18 | binds | B17
19 | binds | B18
20 | binds | B19
21 | binds | B20

Molecular target: human PSMA on cells (Cho-hPSMA, CHO-K1 cells overexpressing full-length human PSMA) (human) (UniProt Q04609)
Assay: hybridoma screening on cells

Row | binding | Binder
22 | binds | B9
23 | binds | B15
